Experimental data published in patent US5352680A, “Delta opioid receptor antagonists to block opioid agonist tolerance and dependence” (priority 1992, dated 1994).
Where two headings read alike, the source gives them in different places.

How the values were obtained:
[1] = tested on: development of morphine tolerance in mice treated acutely with morphine; assay type: in vivo, mice (male Swiss-Webster)
[2] = tested on: development of morphine tolerance in mice treated chronically with morphine; assay type: in vivo, mice (male Swiss-Webster)
Protocol: Male Swiss-Webster mice (BioLab, White Bear Lake, Minn.) weighing 20 to 25 g were used. The mice were rendered tolerant to and dependent on morphine by s.c. implantation of one morphine pellet (75 mg free base)/mouse for 3 days according to the procedure of E. L. Way et al., J. Pharmacol. Exp. Ther., 167, 1 (1969). Control animals were implanted with placebo pellets. Mice were anesthetized lightly with methoxyflurane during the implantation process. […] Chem. Pathol. Pharmacol., 16, 721 (1977).
At least 30 mice (10/group) and three to four dose levels were used to determine each ED50 value.
The ED50 values of morphine and their 95% CL were determined by the parallel line assay of D. J. Finney, Statistical Methods in Biological Assay, Hafner Pub. Co., N.Y. (2d ed. 1969) with the aid of a computer program which has the capability to analyze at the same time 12 lines (dose-response curves) and 6 points (dose levels) per line with log and probit transformations and 35 repetitions per point.
Mice were implanted with a single placebo (control) or morphine pellet (75 mg free base) for 3 days. NTI (10 pmol/mouse) was administered i.c.v. 90 min before and 24 and 48 hr after the morphine pellet implantation. 5'-NTII (10 nmol/mouse) was administered 24 hr before, at the same time as and 24 and 48 hr after the morphine pellet implantation.

CN1CC[C@]23c4c5ccc(O)c4O[C@H]2[C@@H](O)C=C[C@H]3[C@H]1C5.O=S(=O)(O)O [Morphine sulfate, reference compound]
antinociceptive ED50 (95% CL) of morphine sulfate ([1]; after single s.c. dose of 100 mg/kg morphine sulfate (acute tolerance)): 14(range=11-18) mg/kg
antinociceptive ED50 (95% CL) of morphine sulfate ([1]; control animals, tail-flick): 4.0(3.0-5.2) mg/kg
ED50 (95% CL) of morphine sulfate ([2]; animals implanted with morphine pellets for 3 days): 82 (64-106) mg/kg
ED50 (95% CL) of morphine sulfate ([2]; animals receiving placebo pellets): 4.4 (3.4-5.6) mg/kg
